# Library screen at single concentrations

From ChEMBL document CHEMBL3988442, “University of Dundee, Small-Polar-MMV Screening Library” (2021).

T. brucei: 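Whole-parasite assay of Trypanosoma brucei over 72 hours; the read-out is not stated. Concentration: 30 µM. The record gives no direction; compounds that gave an IC50 in retests scored well above the rest, so higher reads as stronger inhibition. Values scatter widely below zero; nearly all retest evidence comes from the higher of the two concentrations used. About 64,000 compounds were tested under these conditions; 1.5% (about 940) showed 50% or more at least once.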
Leishmania in macrophages: 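Cell assay of Leishmania donovani living inside macrophages; the read-out is not stated. Tested at 30 µM. Higher reads as stronger inhibition (inferred: compounds with an IC50 in retests scored well above the rest). Size under these conditions: about 69,000 compounds, about 1,000 of them at 50% or above in at least one test.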

Results are given as percent effect. The controls that fix the scale are not given in the record; negative values are as filed. The compounds are a random part of those screened. Two or more numbers in one place are separate tests of the same structure; such repeats can differ widely. A dash means the value is not listed here; it may have been measured.

compound,T. brucei,Leishmania in macrophages
COc1cccc(N2CCC(CNC(=O)NCc3ccco3)C2)c1 (stereo not drawn),0.1518,17.61
Cn1cc(C2CCCN2CCCn2c(=O)oc3ccccc32)cn1 (stereo not drawn),8.467,-0.4219
CNc1cncc(C2CCCN2Cc2ccn(C)n2)n1 (stereo not drawn),-1.875,3.792 and 22.42
CN(C)CCOCC1CN(C(=O)N2CCCC2)Cc2ccnn2C1.O=C(O)C(F)(F)F.O=C(O)C(F)(F)F (stereo not drawn),-2.327,23.17
O=C(NCc1cc2n(n1)CCCN(Cc1ccc(CO)o1)C2)C1CCC1,-38.45,-34.02
O=C(c1cccnc1)N1CCCC(c2cc(C(F)F)n3ncnc3n2)C1 (stereo not drawn),8.582,-2.993
CCN(Cc1nc2c(cnn2C)c(=O)[nH]1)Cc1ccccc1C,22.14,-44.35
CCOCC(O)CN1CCN(C(=O)CC(C)C)CC1 (stereo not drawn),-42.49,-7.365
O=C(O)C(F)(F)F.[H][C@]12CCNCC[C@@]1([H])S(=O)(=O)CCN2C(=O)c1ccccc1,-27.24,-2.307
CC(C)N1CCc2ncn(C)c2C1C(=O)N1CCOCC1.O=C(O)C(F)(F)F (stereo not drawn),-57.56,4.639
O=C(O)C(F)(F)F.[H][C@@]12CCN(Cc3c(C)noc3C)C[C@]1([H])[C@H](C(=O)NCC1CC1)CCO2,-5.582,16.48
O=C(O)C(F)(F)F.[H][C@@]12COC[C@]1(C(=O)NCCc1cccs1)CN(C1CCOCC1)C2,-27.31,26.06
CCn1ncc2c1C(COC)CN(Cc1ccco1)C2 (stereo not drawn),-48.22,-0.4047
O=C1NCCN1C1CCN(Cc2nc(-c3ccccc3)no2)CC1,2.472,51.92
NC(=O)CNC(=O)c1ccc(CNCc2ccc(F)cc2F)cc1,-29.88,-0.4649
CC(O)CNCc1c[nH]nc1-c1cc2ccccc2o1 (stereo not drawn),-43.76,-9.985
O=C(NCCc1ccsc1)c1ccoc1,-21.28,10.59
COCC(=O)N1CCCCC1c1nc(C)c2c(n1)N(C1CC1)C(=O)CC2 (stereo not drawn),-5.865,6.342
Cc1nc(CCCNC(=O)C2CC(=O)N(C3CC3)C2)sc1C (stereo not drawn),4.232,14.35
Cc1nc(N(C)C)ncc1C(=O)N[C@@H]1CCc2ccccc21,-46.57,20.03
CN1CCN(Cc2ccc(-c3ccc(C(N)=O)cc3)nc2)CC1,-11.51,77.28
Cc1csc2ncc(-c3ccnc(N4CCCC4)n3)c(=O)n12,-8.962,12.57 and 31.74
NC(=O)c1ccc(C(=O)N2CCCC(n3ccnc3)C2)s1 (stereo not drawn),-,29.28
CSc1nccn1-c1cccc(C(=O)NCC(F)(F)F)c1,-11.83,25.5
CC(C)(CNC(=O)OC(C)(C)C)NC(=O)C1CC(=O)N(C2CC2)C1 (stereo not drawn),-31.6,-11.64
[H][C@@]12CN(C(=O)c3cccn3C)C[C@]1([H])C(=O)N(CC(C)C)C2,-14.47,12.39
O=C(CCN1CCCO1)N1CCCC(CO)(CCCc2ccccc2)C1 (stereo not drawn),7.546,-0.7406
CNc1ncc2c(n1)CN(Cc1ccc(Cl)cc1)C2=O,13.91,19.31
CN(C)C(=O)N1CCN(C(=O)Nc2nc(-c3ccccc3)ns2)CC1,-172.4,19.65
Cn1ccnc1CN1CCC2(CC1)CN(Cc1cccnc1)C(=O)CO2.O=C(O)C(F)(F)F.O=C(O)C(F)(F)F,-40.93,3.672 and -4.779
CSC(CNS(C)(=O)=O)c1cccc(Cl)c1 (stereo not drawn),4.649,-8.942
COCCOCCNC(=O)N1CCN(c2ccccc2C#N)CC1,-14.37,9.173
CCc1nc(C2CCCN2C(=O)Cc2cccs2)no1 (stereo not drawn),-21.19,2.577
Cn1cc(C[C@H]2[C@H](N3CCOCC3)CCN2C2CCOCC2)cn1.O=C(O)C(F)(F)F.O=C(O)C(F)(F)F,-13.93,16.95
O=C(O)C(F)(F)F.O=S(=O)(c1cccs1)N1CCCn2cnc(CN3CCCC3)c2C1,-31.03,-4.05
Cc1nn(C)c(C)c1CCn1cncc1-c1ccc2c(c1)CC(C)N2C.Cl (stereo not drawn),26.67,19.06
CCc1ncncc1C(=O)NCCNC(=O)c1ccc(C)c(F)c1,-16.37,22.71
CC(C)(O)CN1CCN(C(=O)c2sccc2C#N)CC1,2.317,15.31
COc1ccc(S(=O)(=O)NCC(c2cccn2C)N(C)C)cc1F (stereo not drawn),-0.883,30.29
CCCOC(=O)N1CCCC2(CCN(Cc3cccc(C#N)c3)C2)C1 (stereo not drawn),-50.42,1.183
Cc1c(Cl)cccc1NC(=O)c1nc[nH]n1,-,-14.49
CC1(C2CCN(CC(N)=O)CC2)CN(Cc2ccccc2)C(=O)O1 (stereo not drawn),-9.843,29.29
CS(=O)(=O)N1CCC2(CCCN(c3ncc(F)cn3)C2)C1 (stereo not drawn),-25.8,-5.729

For reference, 6 entries once more:

For CCOCC(O)CN1CCN(C(=O)CC(C)C)CC1 (stereo not drawn) the result was T. brucei: -42.49%; Leishmania in macrophages: -7.365%.
For CN(C)CCOCC1CN(C(=O)N2CCCC2)Cc2ccnn2C1.O=C(O)C(F)(F)F.O=C(O)C(F)(F)F (stereo not drawn) the result was T. brucei: -2.327%; Leishmania in macrophages: 23.17%.
For COc1cccc(N2CCC(CNC(=O)NCc3ccco3)C2)c1 (stereo not drawn) the result was T. brucei: 0.1518%; Leishmania in macrophages: 17.61%.
For O=C(NCCc1ccsc1)c1ccoc1 the result was T. brucei: -21.28%; Leishmania in macrophages: 10.59%.
For O=C(c1cccnc1)N1CCCC(c2cc(C(F)F)n3ncnc3n2)C1 (stereo not drawn) the result was T. brucei: 8.582%; Leishmania in macrophages: -2.993%.
For [H][C@@]12CN(C(=O)c3cccn3C)C[C@]1([H])C(=O)N(CC(C)C)C2 the result was T. brucei: -14.47%; Leishmania in macrophages: 12.39%.